SMILES strings stand for the structures. Where a name gives a salt, the structure may show the parent alone. The list shows a part of the results. Hit calls seldom repeat between salt and free forms of one compound.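 Kinases, fused to nanoluciferase, were expressed in K562 cells; luminescence was measured every 4 h from 2 to 18 h as percent of control (DMSO = 100%, positive control = 0%). A time point is decreased if signal falls significantly (2 sigma). Hits were called by the authors by a rule that is not shown; the count of time points alone does not decide it.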

By UniProt entry, the sequences of proteins in these tests, tags left out.
UniProt P50750, whole entry: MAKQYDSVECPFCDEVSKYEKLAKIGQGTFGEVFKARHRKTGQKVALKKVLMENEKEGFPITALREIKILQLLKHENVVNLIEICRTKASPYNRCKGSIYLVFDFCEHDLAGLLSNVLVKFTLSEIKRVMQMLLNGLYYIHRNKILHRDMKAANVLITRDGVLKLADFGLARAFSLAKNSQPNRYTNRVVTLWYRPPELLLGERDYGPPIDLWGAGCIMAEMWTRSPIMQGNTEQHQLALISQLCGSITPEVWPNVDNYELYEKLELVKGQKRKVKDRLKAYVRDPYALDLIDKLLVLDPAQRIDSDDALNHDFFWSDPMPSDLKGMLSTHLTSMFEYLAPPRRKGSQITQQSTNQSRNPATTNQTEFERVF
UniProt O96017, whole entry: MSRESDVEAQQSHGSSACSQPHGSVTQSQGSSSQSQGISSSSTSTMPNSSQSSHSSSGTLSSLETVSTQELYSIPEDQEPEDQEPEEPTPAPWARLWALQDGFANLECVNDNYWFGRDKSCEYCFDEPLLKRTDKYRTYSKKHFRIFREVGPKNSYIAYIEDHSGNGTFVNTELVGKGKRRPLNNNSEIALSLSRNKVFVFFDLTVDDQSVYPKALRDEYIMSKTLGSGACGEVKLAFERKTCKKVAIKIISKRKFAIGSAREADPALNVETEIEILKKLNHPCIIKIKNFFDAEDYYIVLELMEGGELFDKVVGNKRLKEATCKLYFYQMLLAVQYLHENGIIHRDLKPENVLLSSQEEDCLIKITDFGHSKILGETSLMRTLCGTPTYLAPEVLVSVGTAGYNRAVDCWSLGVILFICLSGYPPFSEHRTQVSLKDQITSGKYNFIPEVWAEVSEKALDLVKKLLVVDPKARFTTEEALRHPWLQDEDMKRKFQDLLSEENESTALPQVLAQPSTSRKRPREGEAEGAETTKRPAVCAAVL

In one experiment the target is CDK9 (UniProt P50750). In words: kinase-Nluc reporter destabilization hit call (1 = scored as downregulated) (binary); higher = compound decreases kinase abundance. Conditions: K562; 2-18 h.
On to `CC(C)(/C=C(\C#N)C(=O)N1CCC[C@@H](n2nc(-c3ccc(Oc4ccccc4)cc3F)c3c(N)ncnc32)C1)N1CCN(C2COC2)CC1` (2.5 µM), for which the “kinase-Nluc reporter destabilization hit call” value was inactive: 0. With `CNC(=O)c1cccc2cc(Oc3ccnc4cc(OCC5(N)CC5)c(OC)cc34)ccc12` [Lucitanib] (10 µM), the “kinase-Nluc reporter destabilization hit call” value is inactive: 0. In the case of `COc1cc(F)cc([C@@H](CO)NC(=O)[C@@H](C)N2Cc3ccc(-c4nc(NC5CCOCC5)ncc4Cl)cc3C2=O)c1` [ERK1/2 inhibitor 2] (10 µM), the “kinase-Nluc reporter destabilization hit call” value is inactive: 0. As to `O=c1cc(-c2ccccc2)oc2c(O)c(O)ccc12` [7,8-Dihydroxyflavone] (10 µM), the “kinase-Nluc reporter destabilization hit call” value is inactive: 0. With `C=CC(=O)N1CC[C@H](n2nc(C#Cc3cc(OC)cc(OC)c3)c3c(N)ncnc32)C1` [Futibatinib] (10 µM), the “kinase-Nluc reporter destabilization hit call” value is inactive: 0. Same read-out and setting: for `O=C1Nc2ccccc2/C1=C/c1ccc(F)cc1` (10 µM) the value was inactive: 0; for `CN(C)Cc1ccc(-c2cnn3c(-c4cccc(NC(=O)c5cccc(C(F)(F)F)c5)c4)ccnc23)cc1` (2.5 µM), inactive: 0; for `Cc1c[nH]c(/C=C2\C(=O)Nc3ccccc32)c1CCC(=O)O` (10 µM), inactive: 0. Regarding `CC(C)c1ccc2oc3nc(N)c(C(=O)O)cc3c(=O)c2c1` [Amlexanox] (10 µM), the “kinase-Nluc reporter destabilization hit call” value was inactive: 0. As to `NS(=O)(=O)c1ccc(Nc2nc(OCC3CCCCC3)c3[nH]cnc3n2)cc1` (10 µM), the “kinase-Nluc reporter destabilization hit call” value was inactive: 0. Take `Cn1nc(C(C)(C)C)cc1NC(=O)Nc1ccc(Oc2ccncc2)cc1` (10 µM): the “kinase-Nluc reporter destabilization hit call” value is inactive: 0. Regarding `COc1ccc(F)c(F)c1C(=O)c1cnc(NC2CCN(S(C)(=O)=O)CC2)nc1N` (2.5 µM), the “kinase-Nluc reporter destabilization hit call” value is inactive: 0. On to `COc1cc(C(=O)NC2CCN(C)CC2)ccc1Nc1ncc2c(n1)N(C1CCCC1)CC(F)(F)C(=O)N2C` (10 µM), for which the “kinase-Nluc reporter destabilization hit call” value was inactive: 0. In the case of `CCN1C(=O)N(c2c(F)c(OC)cc(OC)c2F)Cc2cnc3[nH]c(CN4CCOCC4)cc3c21` [Pemigatinib] (10 µM), the “kinase-Nluc reporter destabilization hit call” value is inactive: 0. Regarding `COc1cc(Oc2ccnc3cc(OC)c(OC)cc23)ccc1NC(=O)NC(C)c1nccs1` (centres undefined) (2.5 µM), the “kinase-Nluc reporter destabilization hit call” value is inactive: 0.

For `C=CC(=O)N1C[C@H](Nc2ncnc3[nH]ccc23)CC[C@@H]1C` [Ritlecitinib] (10 µM), the “kinase-Nluc reporter destabilization hit call” value was inactive: 0. Turning to `CC(C)(C)S(=O)(=O)c1cc2c(Nc3ccc4scnc4c3)ncnc2cc1OCCO` (2.5 µM), the “kinase-Nluc reporter destabilization hit call” value was inactive: 0.

Regarding `O=C(NOC[C@H](O)CO)c1ccc(F)c(F)c1Nc1ccc(I)cc1F` (2.5 µM), the “kinase-Nluc reporter destabilization hit call” value was inactive: 0. Take `Cc1cccc([C@@H](CO)NC(=O)[C@@H](C)N2Cc3ccc(-c4nc(NC5CCOCC5)ncc4Cl)cc3C2=O)c1` [ERK1/2 inhibitor 1] (10 µM): the “kinase-Nluc reporter destabilization hit call” value is inactive: 0.

`CNC(=O)c1cc(Oc2ccc(NC(=O)Nc3cc(C(C)(C)C)nn3-c3ccc4ncccc4c3)c(F)c2)ccn1` [Rebastinib] (2.5 µM): the “kinase-Nluc reporter destabilization hit call” value is active: 1.

On to `CCCn1cnc2c(NCc3ccccc3)nc(NC(CC)CO)nc21` (centres undefined) [Ca2+ channel agonist 1] (2.5 µM), for which the “kinase-Nluc reporter destabilization hit call” value is inactive: 0. The same measure, in the same setting: for `Brc1c(Br)c(Br)c2n[nH]nc2c1Br` (10 µM) the value was inactive: 0.

For the compound `C=CC(=O)Nc1cccc(Nc2nc(Nc3ccc(OCCOC)cc3)ncc2F)c1` [Spebrutinib] (10 µM), the “kinase-Nluc reporter destabilization hit call” value is inactive: 0. For the compound `CC(C)=CC/C=C(\C)[C@H]1CC[C@]2(C)[C@@H]1[C@H](O)C[C@@H]1[C@@]3(C)CC[C@H](O[C@@H]4O[C@H](CO)[C@@H](O)[C@H](O)[C@H]4O[C@@H]4O[C@H](CO)[C@@H](O)[C@H](O)[C@H]4O)C(C)(C)[C@@H]3CC[C@]12C` [Ginsenoside Rg5] (10 µM), the “kinase-Nluc reporter destabilization hit call” value was inactive: 0.

Consider `Cc1ncc(-c2ccnc(Nc3ccc(S(C)(=O)=O)cc3)n2)n1C(C)C` (2.5 µM), for which the “kinase-Nluc reporter destabilization hit call” value was inactive: 0.

Regarding `CN(C)CCOc1ccc(-c2nc(-c3ccncc3)c(-c3ccc4c(c3)CC/C4=N\O)[nH]2)cc1` (10 µM), the “kinase-Nluc reporter destabilization hit call” value was inactive: 0.

As to `CCN(CCCOc1ccc2c(Nc3cc(CC(=O)Nc4cccc(F)c4)[nH]n3)ncnc2c1)CCOP(=O)(O)O` [Barasertib] (10 µM), the “kinase-Nluc reporter destabilization hit call” value is inactive: 0. `C=CC(=O)N[C@H]1COC[C@H]1Nc1ncc2cc(-c3c(Cl)c(OC)cc(OC)c3Cl)c(=O)n(C)c2n1` (10 µM): the “kinase-Nluc reporter destabilization hit call” value is inactive: 0.

A further experiment deals with CHEK2 (UniProt O96017). The description is as above. The settings on record: K562; 2-18 h.
In the case of `CC#CC(=O)N[C@H]1CCCN(c2c(F)cc(C(N)=O)c3[nH]c(C)c(C)c23)C1` [Branebrutinib] (10 µM), the “kinase-Nluc reporter destabilization hit call” value is inactive: 0. Consider `O=C1NC(=NCc2cccs2)S/C1=C\c1ccc2ncccc2c1` (10 µM), for which the “kinase-Nluc reporter destabilization hit call” value was inactive: 0. Same read-out and setting: the result for `Cn1c(=O)n(-c2ccc(C(C)(C)C#N)cc2)c2c3cc(-c4cnc5ccccc5c4)ccc3ncc21` [Dactolisib (Tosylate)] (10 µM) reads inactive: 0; that for `COC(=O)c1ccc2c(C(=Nc3ccc(N(C)C(=O)CN4CCN(C)CC4)cc3)c3ccccc3)c(O)[nH]c2c1` [Nintedanib] (2.5 µM), inactive: 0; that for `COc1cc2ncnc(Nc3ccc(O)cc3)c2cc1OC` (10 µM), inactive: 0. On the same count and under the same terms, for `O=C(c1ccc(-c2ccc(Cl)cc2)o1)N(Cc1ccccn1)c1ccc(N2CCNCC2)cc1` [MK2-IN-1 (hydrochloride)] (10 µM) the value was inactive: 0.

Take `CN1CCN(S(=O)(=O)c2ccc(-c3cnc(N)c(C(=O)Nc4cccnc4)n3)cc2)CC1` (10 µM): the “kinase-Nluc reporter destabilization hit call” value is inactive: 0. In the case of `CN(C)C[C@@H]1CCn2cc(c3ccccc32)C2=C(C(=O)NC2=O)c2cn(c3ccccc23)CCO1` [Ruboxistaurin (hydrochloride)] (10 µM), the “kinase-Nluc reporter destabilization hit call” value was inactive: 0. For the compound `COc1ccc(Oc2cc(NCCC(F)(F)F)c3ncc(-c4ccc(C(=O)NC5CC5)c(C)c4)n3n2)c(F)c1F` (2.5 µM), the “kinase-Nluc reporter destabilization hit call” value is inactive: 0. As to `CCCCNc1ncc(-c2ccc(CN3CCOCC3)cn2)c(NC2CCC(O)CC2)n1` (centres undefined) (10 µM), the “kinase-Nluc reporter destabilization hit call” value was inactive: 0. Take `O=C(Nc1cc(C(F)(F)F)ccc1N1CCN(Cc2ccccn2)CC1)c1ccc(-c2ccncc2)o1` (10 µM): the “kinase-Nluc reporter destabilization hit call” value is inactive: 0.

In the case of `CC(C)(/C=C(\C#N)C(=O)N1CCC[C@@H](n2nc(-c3ccc(Oc4ccccc4)cc3F)c3c(N)ncnc32)C1)N1CCN(C2COC2)CC1` (2.5 µM), the “kinase-Nluc reporter destabilization hit call” value is inactive: 0. The same measure, in the same setting: the result for `CNC(=O)c1cccc2cc(Oc3ccnc4cc(OCC5(N)CC5)c(OC)cc34)ccc12` [Lucitanib] (10 µM) reads inactive: 0. `COc1cc(F)cc([C@@H](CO)NC(=O)[C@@H](C)N2Cc3ccc(-c4nc(NC5CCOCC5)ncc4Cl)cc3C2=O)c1` [ERK1/2 inhibitor 2] (10 µM): the “kinase-Nluc reporter destabilization hit call” value was inactive: 0. Regarding `O=c1cc(-c2ccccc2)oc2c(O)c(O)ccc12` [7,8-Dihydroxyflavone] (10 µM), the “kinase-Nluc reporter destabilization hit call” value is inactive: 0. With `C=CC(=O)N1CC[C@H](n2nc(C#Cc3cc(OC)cc(OC)c3)c3c(N)ncnc32)C1` [Futibatinib] (10 µM), the “kinase-Nluc reporter destabilization hit call” value is inactive: 0. Still for that read-out and setting: for `O=C1Nc2ccccc2/C1=C/c1ccc(F)cc1` (10 µM) the value was inactive: 0; for `CN(C)Cc1ccc(-c2cnn3c(-c4cccc(NC(=O)c5cccc(C(F)(F)F)c5)c4)ccnc23)cc1` (2.5 µM), inactive: 0. `Cc1c[nH]c(/C=C2\C(=O)Nc3ccccc32)c1CCC(=O)O` (10 µM): the “kinase-Nluc reporter destabilization hit call” value is inactive: 0. For `CC(C)c1ccc2oc3nc(N)c(C(=O)O)cc3c(=O)c2c1` [Amlexanox] (10 µM), the “kinase-Nluc reporter destabilization hit call” value was inactive: 0.

`NS(=O)(=O)c1ccc(Nc2nc(OCC3CCCCC3)c3[nH]cnc3n2)cc1` (10 µM): the “kinase-Nluc reporter destabilization hit call” value was inactive: 0. Consider `Cn1nc(C(C)(C)C)cc1NC(=O)Nc1ccc(Oc2ccncc2)cc1` (10 µM), for which the “kinase-Nluc reporter destabilization hit call” value was inactive: 0. Take `COc1ccc(F)c(F)c1C(=O)c1cnc(NC2CCN(S(C)(=O)=O)CC2)nc1N` (2.5 µM): the “kinase-Nluc reporter destabilization hit call” value is inactive: 0. Take `COc1cc(C(=O)NC2CCN(C)CC2)ccc1Nc1ncc2c(n1)N(C1CCCC1)CC(F)(F)C(=O)N2C` (10 µM): the “kinase-Nluc reporter destabilization hit call” value was inactive: 0. On to `CCN1C(=O)N(c2c(F)c(OC)cc(OC)c2F)Cc2cnc3[nH]c(CN4CCOCC4)cc3c21` [Pemigatinib] (10 µM), for which the “kinase-Nluc reporter destabilization hit call” value was inactive: 0.

As for `COc1cc(Oc2ccnc3cc(OC)c(OC)cc23)ccc1NC(=O)NC(C)c1nccs1` (centres undefined) (2.5 µM), the “kinase-Nluc reporter destabilization hit call” value is inactive: 0. Same read-out and setting: the result for `C=CC(=O)N1C[C@H](Nc2ncnc3[nH]ccc23)CC[C@@H]1C` [Ritlecitinib] (10 µM) reads inactive: 0; that for `CC(C)(C)S(=O)(=O)c1cc2c(Nc3ccc4scnc4c3)ncnc2cc1OCCO` (2.5 µM), inactive: 0. For the compound `O=C(NOC[C@H](O)CO)c1ccc(F)c(F)c1Nc1ccc(I)cc1F` (2.5 µM), the “kinase-Nluc reporter destabilization hit call” value was inactive: 0. Consider `Cc1cccc([C@@H](CO)NC(=O)[C@@H](C)N2Cc3ccc(-c4nc(NC5CCOCC5)ncc4Cl)cc3C2=O)c1` [ERK1/2 inhibitor 1] (10 µM), for which the “kinase-Nluc reporter destabilization hit call” value is inactive: 0.

In the case of `CNC(=O)c1cc(Oc2ccc(NC(=O)Nc3cc(C(C)(C)C)nn3-c3ccc4ncccc4c3)c(F)c2)ccn1` [Rebastinib] (2.5 µM), the “kinase-Nluc reporter destabilization hit call” value was inactive: 0. Consider `CCCn1cnc2c(NCc3ccccc3)nc(NC(CC)CO)nc21` (centres undefined) [Ca2+ channel agonist 1] (2.5 µM), for which the “kinase-Nluc reporter destabilization hit call” value is inactive: 0. On to `Brc1c(Br)c(Br)c2n[nH]nc2c1Br` (10 µM), for which the “kinase-Nluc reporter destabilization hit call” value is inactive: 0.

`C=CC(=O)Nc1cccc(Nc2nc(Nc3ccc(OCCOC)cc3)ncc2F)c1` [Spebrutinib] (10 µM): the “kinase-Nluc reporter destabilization hit call” value is inactive: 0. Take `CC(C)=CC/C=C(\C)[C@H]1CC[C@]2(C)[C@@H]1[C@H](O)C[C@@H]1[C@@]3(C)CC[C@H](O[C@@H]4O[C@H](CO)[C@@H](O)[C@H](O)[C@H]4O[C@@H]4O[C@H](CO)[C@@H](O)[C@H](O)[C@H]4O)C(C)(C)[C@@H]3CC[C@]12C` [Ginsenoside Rg5] (10 µM): the “kinase-Nluc reporter destabilization hit call” value is inactive: 0.

Regarding `Cc1ncc(-c2ccnc(Nc3ccc(S(C)(=O)=O)cc3)n2)n1C(C)C` (2.5 µM), the “kinase-Nluc reporter destabilization hit call” value is inactive: 0.

The record behind these values is the supplement of paper PMC12823440, “Inhibitors supercharge kinase turnover through native proteolytic circuits” (Nature, 2025).
